Test results published in the supplement of paper PMC10849652.
This is one part of the list. Residues, ends and D or L forms follow the SMILES beside them. *: point of attachment. Cbz = O=C(OCc1ccccc1)*

By UniProt entry, the sequences of proteins in these tests, tags left out. Where a name states a change or a piece, a line headed by the entry shows the natural chain unless it says otherwise.
UniProt Q99766: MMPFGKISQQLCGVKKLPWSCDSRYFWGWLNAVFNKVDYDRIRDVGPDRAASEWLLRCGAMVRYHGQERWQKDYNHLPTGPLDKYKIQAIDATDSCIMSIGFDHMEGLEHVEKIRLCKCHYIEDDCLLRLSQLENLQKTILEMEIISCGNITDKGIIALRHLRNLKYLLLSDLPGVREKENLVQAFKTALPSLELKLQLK
UniProt P30046: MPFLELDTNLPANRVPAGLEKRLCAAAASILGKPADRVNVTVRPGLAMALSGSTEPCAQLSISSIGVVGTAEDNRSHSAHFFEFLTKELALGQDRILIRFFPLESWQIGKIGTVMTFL
UniProt O76075: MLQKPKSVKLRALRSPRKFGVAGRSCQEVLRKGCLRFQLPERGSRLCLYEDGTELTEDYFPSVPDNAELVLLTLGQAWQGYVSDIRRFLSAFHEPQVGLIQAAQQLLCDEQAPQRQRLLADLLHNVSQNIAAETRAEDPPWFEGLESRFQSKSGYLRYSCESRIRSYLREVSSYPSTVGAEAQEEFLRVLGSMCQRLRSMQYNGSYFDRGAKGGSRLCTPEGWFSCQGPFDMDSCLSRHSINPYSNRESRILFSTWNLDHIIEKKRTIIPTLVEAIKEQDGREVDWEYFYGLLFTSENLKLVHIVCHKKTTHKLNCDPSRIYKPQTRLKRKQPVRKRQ
UniProt Q5TDH0: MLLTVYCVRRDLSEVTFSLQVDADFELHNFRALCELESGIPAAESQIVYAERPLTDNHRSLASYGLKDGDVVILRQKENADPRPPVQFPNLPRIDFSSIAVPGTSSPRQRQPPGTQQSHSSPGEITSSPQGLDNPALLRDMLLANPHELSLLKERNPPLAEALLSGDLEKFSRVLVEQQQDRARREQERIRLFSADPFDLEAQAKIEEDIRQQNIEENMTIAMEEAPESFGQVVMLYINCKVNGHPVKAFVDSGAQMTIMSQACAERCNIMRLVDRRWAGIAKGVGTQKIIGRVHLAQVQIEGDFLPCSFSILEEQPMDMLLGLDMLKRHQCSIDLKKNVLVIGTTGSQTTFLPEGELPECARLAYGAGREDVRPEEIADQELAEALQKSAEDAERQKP
UniProt O60231: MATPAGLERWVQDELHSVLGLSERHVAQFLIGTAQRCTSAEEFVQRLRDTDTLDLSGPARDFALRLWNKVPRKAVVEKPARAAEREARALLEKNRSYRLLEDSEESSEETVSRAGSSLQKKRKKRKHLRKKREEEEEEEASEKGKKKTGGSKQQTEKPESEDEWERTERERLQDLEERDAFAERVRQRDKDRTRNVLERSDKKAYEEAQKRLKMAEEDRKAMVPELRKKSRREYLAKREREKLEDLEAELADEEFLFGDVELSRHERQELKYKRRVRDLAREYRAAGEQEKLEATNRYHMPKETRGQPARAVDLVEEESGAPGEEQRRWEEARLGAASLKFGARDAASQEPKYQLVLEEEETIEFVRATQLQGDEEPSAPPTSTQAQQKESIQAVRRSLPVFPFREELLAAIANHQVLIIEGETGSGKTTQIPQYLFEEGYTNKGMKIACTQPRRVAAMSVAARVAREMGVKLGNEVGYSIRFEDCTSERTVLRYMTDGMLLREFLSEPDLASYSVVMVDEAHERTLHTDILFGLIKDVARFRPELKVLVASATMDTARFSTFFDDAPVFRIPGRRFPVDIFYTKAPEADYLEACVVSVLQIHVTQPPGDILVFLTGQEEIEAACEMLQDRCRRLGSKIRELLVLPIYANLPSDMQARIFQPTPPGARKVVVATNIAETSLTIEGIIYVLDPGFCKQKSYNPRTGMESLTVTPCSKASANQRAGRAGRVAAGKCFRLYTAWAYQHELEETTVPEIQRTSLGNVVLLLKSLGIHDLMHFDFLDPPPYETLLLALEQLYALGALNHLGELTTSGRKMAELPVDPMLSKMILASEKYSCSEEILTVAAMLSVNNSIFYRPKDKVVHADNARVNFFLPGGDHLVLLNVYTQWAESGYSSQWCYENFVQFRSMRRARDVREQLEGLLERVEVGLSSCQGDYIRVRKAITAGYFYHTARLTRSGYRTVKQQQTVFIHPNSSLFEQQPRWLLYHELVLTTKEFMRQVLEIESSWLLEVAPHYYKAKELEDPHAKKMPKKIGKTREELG
UniProt Q08211, whole entry, looked up: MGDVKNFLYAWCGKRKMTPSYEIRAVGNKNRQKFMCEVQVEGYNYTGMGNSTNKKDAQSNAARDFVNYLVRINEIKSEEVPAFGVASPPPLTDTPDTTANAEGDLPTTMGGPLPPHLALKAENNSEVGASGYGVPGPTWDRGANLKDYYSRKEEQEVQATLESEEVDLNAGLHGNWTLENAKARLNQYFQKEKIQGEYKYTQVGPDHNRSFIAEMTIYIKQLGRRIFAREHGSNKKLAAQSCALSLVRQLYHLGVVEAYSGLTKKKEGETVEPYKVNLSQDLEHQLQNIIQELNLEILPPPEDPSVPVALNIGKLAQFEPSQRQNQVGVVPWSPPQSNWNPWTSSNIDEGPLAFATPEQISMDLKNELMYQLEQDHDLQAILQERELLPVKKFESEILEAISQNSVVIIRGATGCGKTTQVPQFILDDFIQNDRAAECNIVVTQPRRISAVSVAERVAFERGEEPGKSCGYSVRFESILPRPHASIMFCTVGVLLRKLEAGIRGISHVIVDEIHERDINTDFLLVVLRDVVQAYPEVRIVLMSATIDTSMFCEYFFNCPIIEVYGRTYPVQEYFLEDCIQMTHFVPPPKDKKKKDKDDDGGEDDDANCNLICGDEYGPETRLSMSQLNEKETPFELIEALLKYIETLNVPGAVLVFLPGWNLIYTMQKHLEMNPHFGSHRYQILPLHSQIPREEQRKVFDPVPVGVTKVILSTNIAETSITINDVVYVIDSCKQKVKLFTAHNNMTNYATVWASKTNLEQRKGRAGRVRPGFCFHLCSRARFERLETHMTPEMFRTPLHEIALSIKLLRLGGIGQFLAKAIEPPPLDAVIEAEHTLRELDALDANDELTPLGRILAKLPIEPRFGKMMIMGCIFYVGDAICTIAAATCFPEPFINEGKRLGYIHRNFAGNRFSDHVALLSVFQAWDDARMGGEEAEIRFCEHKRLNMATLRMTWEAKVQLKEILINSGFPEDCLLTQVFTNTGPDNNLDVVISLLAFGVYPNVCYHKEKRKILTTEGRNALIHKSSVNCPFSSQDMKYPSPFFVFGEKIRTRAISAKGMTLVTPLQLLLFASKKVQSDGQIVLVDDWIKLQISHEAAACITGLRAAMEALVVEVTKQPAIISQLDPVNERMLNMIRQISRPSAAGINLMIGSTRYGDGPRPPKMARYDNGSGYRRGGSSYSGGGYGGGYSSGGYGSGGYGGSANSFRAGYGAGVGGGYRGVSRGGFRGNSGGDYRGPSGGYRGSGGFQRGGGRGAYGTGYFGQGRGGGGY
UniProt O43143: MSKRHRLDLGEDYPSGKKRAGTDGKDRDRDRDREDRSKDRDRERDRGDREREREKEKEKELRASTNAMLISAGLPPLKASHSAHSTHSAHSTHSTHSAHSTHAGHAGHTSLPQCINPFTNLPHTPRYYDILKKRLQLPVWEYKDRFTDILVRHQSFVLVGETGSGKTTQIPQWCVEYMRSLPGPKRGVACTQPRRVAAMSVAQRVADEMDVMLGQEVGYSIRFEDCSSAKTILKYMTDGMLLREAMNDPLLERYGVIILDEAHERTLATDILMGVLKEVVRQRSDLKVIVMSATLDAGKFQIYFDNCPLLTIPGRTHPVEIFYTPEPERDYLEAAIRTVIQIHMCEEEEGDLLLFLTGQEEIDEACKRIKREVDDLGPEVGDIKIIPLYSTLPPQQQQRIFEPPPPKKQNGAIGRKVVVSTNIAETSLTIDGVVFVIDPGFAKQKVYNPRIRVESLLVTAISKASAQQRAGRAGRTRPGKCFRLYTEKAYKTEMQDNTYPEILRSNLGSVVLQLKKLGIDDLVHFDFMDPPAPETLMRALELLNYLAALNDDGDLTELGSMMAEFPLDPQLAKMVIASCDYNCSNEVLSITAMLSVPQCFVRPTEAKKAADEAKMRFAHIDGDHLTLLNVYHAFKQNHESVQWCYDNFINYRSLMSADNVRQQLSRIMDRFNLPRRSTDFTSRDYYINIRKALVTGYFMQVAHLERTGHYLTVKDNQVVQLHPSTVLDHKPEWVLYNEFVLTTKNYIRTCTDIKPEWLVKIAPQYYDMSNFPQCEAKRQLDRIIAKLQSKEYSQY
UniProt Q9Y315: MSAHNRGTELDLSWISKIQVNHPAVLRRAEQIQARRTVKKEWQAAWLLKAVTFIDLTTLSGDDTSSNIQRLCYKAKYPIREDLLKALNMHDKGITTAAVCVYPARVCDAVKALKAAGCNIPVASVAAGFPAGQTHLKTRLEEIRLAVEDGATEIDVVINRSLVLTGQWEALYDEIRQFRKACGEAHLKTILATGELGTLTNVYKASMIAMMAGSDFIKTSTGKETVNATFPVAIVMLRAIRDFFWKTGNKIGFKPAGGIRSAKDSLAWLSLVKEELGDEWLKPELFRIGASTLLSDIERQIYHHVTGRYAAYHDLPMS
UniProt Q9BUQ8: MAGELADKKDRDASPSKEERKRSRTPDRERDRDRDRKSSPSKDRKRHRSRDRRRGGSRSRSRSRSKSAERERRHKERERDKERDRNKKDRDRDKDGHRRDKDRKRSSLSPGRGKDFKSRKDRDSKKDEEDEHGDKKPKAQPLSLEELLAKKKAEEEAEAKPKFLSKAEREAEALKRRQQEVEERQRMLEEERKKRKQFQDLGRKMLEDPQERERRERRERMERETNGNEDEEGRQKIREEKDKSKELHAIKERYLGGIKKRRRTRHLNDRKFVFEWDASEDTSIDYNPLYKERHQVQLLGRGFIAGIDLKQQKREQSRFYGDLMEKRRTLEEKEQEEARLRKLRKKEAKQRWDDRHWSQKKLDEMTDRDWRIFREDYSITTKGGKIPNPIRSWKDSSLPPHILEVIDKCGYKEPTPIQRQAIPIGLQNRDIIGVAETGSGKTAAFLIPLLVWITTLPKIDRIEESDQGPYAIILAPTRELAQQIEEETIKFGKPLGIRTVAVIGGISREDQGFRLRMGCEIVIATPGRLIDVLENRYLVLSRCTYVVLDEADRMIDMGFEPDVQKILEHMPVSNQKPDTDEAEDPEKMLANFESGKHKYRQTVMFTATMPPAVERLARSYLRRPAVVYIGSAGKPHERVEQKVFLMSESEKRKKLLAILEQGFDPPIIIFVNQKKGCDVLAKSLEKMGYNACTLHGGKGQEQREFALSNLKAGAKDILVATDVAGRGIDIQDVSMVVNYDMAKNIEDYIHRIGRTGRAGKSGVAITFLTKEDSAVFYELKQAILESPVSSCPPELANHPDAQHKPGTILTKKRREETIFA
UniProt P26196: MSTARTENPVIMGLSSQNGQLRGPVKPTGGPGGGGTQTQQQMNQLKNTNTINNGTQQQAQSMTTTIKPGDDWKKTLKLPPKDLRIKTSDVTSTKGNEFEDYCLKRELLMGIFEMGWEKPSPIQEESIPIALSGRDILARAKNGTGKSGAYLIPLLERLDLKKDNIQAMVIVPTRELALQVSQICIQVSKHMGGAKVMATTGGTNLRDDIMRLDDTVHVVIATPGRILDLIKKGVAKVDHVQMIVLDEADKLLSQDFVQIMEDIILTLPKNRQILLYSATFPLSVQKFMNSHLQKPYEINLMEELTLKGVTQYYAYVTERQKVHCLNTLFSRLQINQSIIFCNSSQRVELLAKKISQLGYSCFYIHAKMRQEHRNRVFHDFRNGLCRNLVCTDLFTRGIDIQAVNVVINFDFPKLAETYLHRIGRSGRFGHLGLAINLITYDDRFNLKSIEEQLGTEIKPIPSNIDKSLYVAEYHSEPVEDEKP
UniProt Q6ZN54: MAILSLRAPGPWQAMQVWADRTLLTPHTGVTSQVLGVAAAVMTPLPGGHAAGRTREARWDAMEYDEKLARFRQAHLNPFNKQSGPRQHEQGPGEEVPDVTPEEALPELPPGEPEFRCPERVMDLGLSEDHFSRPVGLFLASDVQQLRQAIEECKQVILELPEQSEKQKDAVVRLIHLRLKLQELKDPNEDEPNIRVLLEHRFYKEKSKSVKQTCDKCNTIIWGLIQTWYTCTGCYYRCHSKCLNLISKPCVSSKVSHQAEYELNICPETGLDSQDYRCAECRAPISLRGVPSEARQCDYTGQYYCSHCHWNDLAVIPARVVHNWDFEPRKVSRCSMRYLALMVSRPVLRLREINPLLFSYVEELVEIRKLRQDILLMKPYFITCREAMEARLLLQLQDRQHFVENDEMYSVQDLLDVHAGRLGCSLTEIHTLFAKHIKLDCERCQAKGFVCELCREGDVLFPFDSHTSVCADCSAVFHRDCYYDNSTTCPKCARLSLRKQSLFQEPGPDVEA
UniProt Q9NUI1: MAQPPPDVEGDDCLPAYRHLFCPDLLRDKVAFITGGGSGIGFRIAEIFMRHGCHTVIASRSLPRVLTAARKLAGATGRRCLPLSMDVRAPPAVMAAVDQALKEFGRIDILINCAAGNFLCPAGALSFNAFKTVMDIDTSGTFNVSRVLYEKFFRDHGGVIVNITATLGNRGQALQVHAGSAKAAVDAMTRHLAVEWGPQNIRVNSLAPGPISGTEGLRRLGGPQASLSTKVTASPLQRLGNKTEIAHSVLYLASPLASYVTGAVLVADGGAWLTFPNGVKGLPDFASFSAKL

Tests used:
Experiment in all cases: log2 fold change, soluble protein after heating vs DMSO (PISA); higher = thermal stabilisation; K562 cells, 10 uM, 30 min; active = over 0.2 and 3.5 SD of the protein, either way, in both replicates (recomputed)
erlotinib = compound: C#Cc1cccc(Nc2ncnc3cc(OCCOC)c(OCCOC)cc23)c1 [erlotinib]
Method in brief: (§1)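 K562 cells at 2×10^6 cells/mL were given 10 μM compound for 30 min. Aliquots then went through 3 min of heating across 48°C-58°C, were pooled, and were extracted in PBS with 0.5% NP-40 at 4°C, and the supernatant after 21,000xg for 90 min was quantified by TMTpro 16plex LC-MS/MS with channel sums equalised. Thermal stability relative to control samples, from duplicates, is given as log2 fold change.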

[1] = compound: C/C(=N\NC(=O)C1=CC(=CC=C1)S(=O)(=O)N2CCOCC2)/C3=C(C=CC(=C3)Cl)O
Method in brief: as §1

[2] = compound: C1=CC(=C(C=C1Cl)C2=NC3=NC=CN=C3C(=N2)NC4=CC=NC=C4)F
Method in brief: as §1

[3] = compound: C1=CC(=CC=C1C2=NC3=C(N2)C=C(C=C3)C(=O)N)OC4=CC=C(C=C4)Cl
Method in brief: as §1

[4] = compound: C1=CC2=C(C=CC(=C2)/C=C\3/C(=O)NC(=NCC4=CC=CS4)S3)N=C1
Method in brief: as §1

[5] = compound: C1=CC2=NC=CN=C2C=C1/C=C/3\C(=O)NC(=O)S3
Method in brief: as §1

[6] = compound: C1=CC=C(C=C1)C2=NC(=C(N2)C3=CC=NC=C3)C4=CC(=C(C=C4)Cl)O
Method in brief: as §1

[7] = compound: C1=CC=C2C(=C1)C3=NNC4=CC=CC(=C43)C2=O
Method in brief: as §1

[8] = compound: C1CCN(C1)C(=O)NC2=CC=CC(=C2)NC3=NC=C(C(=N3)NCCC4=CN=CN4)Br
Method in brief: as §1

[9] = compound: C1CN(CCC1(CC2=CC=C(C=C2)Cl)N)C3=NC=NC4=C3C=CN4
Method in brief: as §1

IRAK-1-4 Inhibitor I = compound: C1COCCN1CCN2C3=CC=CC=C3N=C2NC(=O)C4=CC(=CC=C4)[N+](=O)[O-] [IRAK-1-4 Inhibitor I]
Method in brief: as §1

ibrutinib = compound: C=CC(=O)N1CCC[C@@H](n2nc(-c3ccc(Oc4ccccc4)cc3)c3c(N)ncnc32)C1 [ibrutinib]
Method in brief: as §1

[10] = compound: CC(=O)c1cnc2ccc(-c3cc(Cl)c(O)c(Cl)c3)nc2c1N[C@H]1CC[C@H](CN(C)C)CC1
Method in brief: as §1

ralimetinib = compound: CC(C)(C)Cn1c(N)nc2ccc(-c3[nH]c(C(C)(C)C)nc3-c3ccc(F)cc3)nc21 [ralimetinib]
Method in brief: as §1

[11] = compound: CC(C)(O)CC(=O)NCCn1ccc2ncnc(Nc3ccc(Oc4cccc(C(F)(F)F)c4)c(Cl)c3)c21
Method in brief: as §1

[12] = compound: CC(C)C1=C2N=C(C=C(N2N=C1)NCC3=CC=CC=C3)NCCCCCCN
Method in brief: as §1

[13] = compound: CC(C)C[C@@H](C=O)NC(=O)[C@H](CC(C)C)NC(=O)[C@H](CC(C)C)NC(=O)OCc1ccccc1
Method in brief: as §1

pinometostat = compound: CC(C)N(C[C@H]1O[C@@H](n2cnc3c(N)ncnc32)[C@H](O)[C@@H]1O)[C@H]1C[C@@H](CCc2nc3cc(C(C)(C)C)ccc3[nH]2)C1 [pinometostat]
Method in brief: as §1

[14] = compound: CC1=C(C(CC(=O)N1)C2=CC=C(C=C2)C(F)(F)F)C(=O)NC3=C(C=C4C(=C3)C=NN4)F
Method in brief: as §1

[15] = compound: CC1=C(C2=C(C=C1)C(=O)C3=CC=CC=C3N2CCCN)C
Method in brief: as §1

Measured: log2 fold change

DNAH8 (UniProt Q96JB1)
inactive: erlotinib 0.148 | [1] -0.052 | [2] 0.138 | [3] -0.054 | [4] 0.166 | [5] 0 | [6] -0.014 | [7] -0.054 | [8] 0 | [9] 0.109 | IRAK-1-4 Inhibitor I 0.044 | ibrutinib 0.162 | [10] 0.053 | ralimetinib -0.071 | [11] -0.052 | [12] 0.095 | [13] -0.067 | pinometostat -0.114 | [14] 0.067 | [15] -0.001

DMAC2L (UniProt Q99766)
inactive: erlotinib -0.01 | [1] 0.022 | [2] 0.038 | [3] -0.004 | [4] 0.037 | [5] 0.021 | [6] 0.044 | [7] 0.008 | [8] -0.051 | [9] 0.04 | IRAK-1-4 Inhibitor I -0.025 | ibrutinib 0.002 | [10] -0.028 | ralimetinib -0.029 | [11] 0.042 | [12] 0.117 | [13] -0.02 | pinometostat 0.002 | [14] -0.051 | [15] 0.061

DDX19A (UniProt Q9NUU7)
inactive: erlotinib 0.004 | [1] 0.053 | [2] 0.011 | [3] -0.02 | [4] -0.116 | [5] 0.021 | [6] 0.078 | [7] 0.058 | [8] -0.027 | [9] 0.105 | IRAK-1-4 Inhibitor I 0.052 | ibrutinib 0.002 | [10] -0.004 | ralimetinib -0.005 | [11] -0.054 | [12] -0.022 | [13] -0.054 | pinometostat -0.054 | [14] 0.005 | [15] 0.016

DDT (UniProt P30046)
inactive: erlotinib 0.003 | [1] 0.102 | [2] 0.196 | [3] 0.007 | [4] 0.093 | [5] 0 | [6] 0.044 | [7] -0.002 | [8] -0.026 | [9] 0.001 | IRAK-1-4 Inhibitor I 0.013 | ibrutinib 0 | [10] 0 | ralimetinib -0.054 | [11] -0.072 | [12] 0.057 | [13] -0.022 | pinometostat -0.032 | [14] 0.016 | [15] 0.115

DFFB (UniProt O76075)
active: [8] -0.305
inactive: erlotinib -0.015 | [1] 0.103 | [2] 0.022 | [3] 0.035 | [4] 0.101 | [5] 0.016 | [6] 0.037 | [7] -0.005 | [9] -0.039 | IRAK-1-4 Inhibitor I -0.002 | ibrutinib -0.047 | [10] 0.011 | ralimetinib 0.005 | [11] -0.148 | [12] 0.066 | [13] 0.045 | pinometostat 0.008 | [15] 0.009

DDI2 isoform 3 (UniProt Q5TDH0)
inactive: erlotinib 0.025 | [1] 0.052 | [2] -0.082 | [3] 0.022 | [4] 0.047 | [5] 0.016 | [6] -0.018 | [7] -0.001 | [8] 0.011 | [9] -0.014 | IRAK-1-4 Inhibitor I 0.065 | ibrutinib 0.013 | [10] 0.049 | ralimetinib -0.024 | [11] 0.005 | [12] -0.04 | [13] 0.001 | pinometostat -0.036 | [14] -0.017 | [15] -0.067

DHX16 (UniProt O60231)
inactive: erlotinib 0.01 | [1] 0.05 | [2] 0.224 | [3] 0.027 | [4] 0.007 | [5] -0.01 | [6] 0.014 | [7] 0.013 | [8] -0.044 | [9] 0.024 | IRAK-1-4 Inhibitor I -0.006 | ibrutinib 0 | ralimetinib -0.001 | [11] -0.025 | [12] -0.002 | [13] 0.009 | pinometostat 0.004 | [15] 0.159
active: [10] -0.257

DHX9 (UniProt Q08211)
inactive: erlotinib -0.081 | [1] -0.095 | [2] -0.338 | [3] 0.033 | [4] -0.054 | [5] 0.065 | [6] -0.065 | [7] -0.083 | [8] 0.036 | [9] -0.103 | IRAK-1-4 Inhibitor I -0.062 | ibrutinib -0.017 | [10] 0.028 | ralimetinib 0.08 | [11] 0.103 | [12] 0.243 | [13] 0.091 | pinometostat 0.199 | [14] -0.02 | [15] -0.114

DHX30 isoform 2 (UniProt Q7L2E3)
inactive: erlotinib 0.007 | [1] -0.051 | [2] -0.292 | [3] -0.009 | [4] -0.002 | [5] 0.013 | [6] -0.04 | [7] 0.029 | [8] 0.022 | [9] -0.035 | IRAK-1-4 Inhibitor I -0.16 | ibrutinib 0.05 | [10] 0.008 | ralimetinib 0.133 | [11] 0.03 | [12] -0.104 | [13] 0.106 | pinometostat 0.164 | [14] -0.041 | [15] -0.292

DHX15 (UniProt O43143)
inactive: erlotinib 0.026 | [1] 0.008 | [2] 0.037 | [3] -0.005 | [4] -0.037 | [5] -0.001 | [6] 0.043 | [7] 0.015 | [8] -0.013 | [9] 0.065 | IRAK-1-4 Inhibitor I 0.02 | ibrutinib -0.008 | [10] 0.012 | ralimetinib -0.038 | [11] 0 | [12] 0.051 | [13] -0.026 | pinometostat 0.001 | [14] 0 | [15] 0.086

DERA (UniProt Q9Y315)
inactive: erlotinib -0.04 | [1] -0.038 | [2] 0.042 | [3] 0.048 | [4] 0.01 | [5] 0.052 | [6] -0.019 | [7] 0.004 | [8] 0.004 | [9] 0.053 | IRAK-1-4 Inhibitor I 0.049 | ibrutinib 0.042 | [10] -0.008 | ralimetinib 0.006 | [11] -0.013 | [12] 0.1 | [13] -0.015 | pinometostat 0.005 | [14] 0.012 | [15] 0.012

DDX23 (UniProt Q9BUQ8)
inactive: erlotinib -0.104 | [1] -0.09 | [2] -0.113 | [3] 0.043 | [4] -0.029 | [5] 0.098 | [6] -0.131 | [7] -0.051 | [8] 0.056 | [9] -0.104 | IRAK-1-4 Inhibitor I -0.026 | ibrutinib -0.087 | [10] 0.071 | ralimetinib 0.074 | [11] 0.182 | [12] 0.219 | [13] 0.122 | pinometostat 0.22 | [14] 0.007 | [15] 0.106

DNAJA1 (UniProt P31689)
inactive: erlotinib -0.019 | [1] 0.044 | [2] 0.009 | [3] 0 | [4] -0.039 | [5] 0.002 | [6] 0.017 | [7] 0.013 | [8] -0.027 | [9] -0.038 | IRAK-1-4 Inhibitor I 0.004 | ibrutinib 0.011 | [10] -0.05 | ralimetinib -0.022 | [11] -0.015 | [12] 0.016 | [13] -0.023 | pinometostat -0.015 | [14] 0.014 | [15] 0.019

DDX6 (UniProt P26196)
inactive: erlotinib -0.018 | [1] 0.014 | [2] -0.031 | [3] 0.008 | [4] -0.01 | [5] -0.029 | [6] 0.051 | [7] -0.035 | [8] 0.016 | [9] -0.069 | IRAK-1-4 Inhibitor I 0 | ibrutinib 0.016 | [10] -0.095 | ralimetinib 0.051 | [11] 0.013 | [12] -0.016 | [13] 0.037 | pinometostat 0.069 | [14] -0.007 | [15] 0.073

DEF8 (UniProt Q6ZN54)
inactive: erlotinib 0.037 | [1] 0.088 | [3] 0.04 | [4] 0.227 | [5] 0.088 | [7] -0.084 | ibrutinib 0.137 | [10] 0.045 | [12] -0.276

DECR2 (UniProt Q9NUI1)
inactive: erlotinib 0.119 | [1] -0.019 | [2] 0.034 | [3] 0.072 | [4] 0.132 | [5] 0.014 | [7] 0.027 | [8] -0.015 | [9] 0.078 | IRAK-1-4 Inhibitor I 0.103 | ibrutinib 0.016 | [10] -0.065 | [11] -0.08 | [12] -0.062 | pinometostat -0.027 | [14] -0.001 | [15] 0.08

DHX36 (UniProt Q9H2U1)
inactive: erlotinib -0.089 | [1] 0.013 | [2] -0.08 | [3] 0.031 | [4] -0.072 | [5] 0.011 | [6] 0.044 | [7] -0.023 | [8] 0.047 | [9] -0.066 | IRAK-1-4 Inhibitor I -0.053 | ibrutinib 0.014 | [10] 0.001 | ralimetinib 0.111 | [11] 0.009 | [12] -0.025 | [13] 0.056 | pinometostat 0.153 | [15] -0.206

Taken from the results shown (two entries):
DHX30 isoform 2 (UniProt Q7L2E3)
inactive: erlotinib 0.007 | [1] -0.051 | [2] -0.292 | [3] -0.009 | [4] -0.002 | [5] 0.013 | [6] -0.04 | [7] 0.029 | [8] 0.022 | [9] -0.035 | IRAK-1-4 Inhibitor I -0.16 | ibrutinib 0.05 | [10] 0.008 | ralimetinib 0.133 | [11] 0.03 | [12] -0.104 | [13] 0.106 | pinometostat 0.164 | [14] -0.041 | [15] -0.292

DHX15 (UniProt O43143)
inactive: erlotinib 0.026 | [1] 0.008 | [2] 0.037 | [3] -0.005 | [4] -0.037 | [5] -0.001 | [6] 0.043 | [7] 0.015 | [8] -0.013 | [9] 0.065 | IRAK-1-4 Inhibitor I 0.02 | ibrutinib -0.008 | [10] 0.012 | ralimetinib -0.038 | [11] 0 | [12] 0.051 | [13] -0.026 | pinometostat 0.001 | [14] 0 | [15] 0.086
